These are yes or no findings as the source states them, for the method shown. In cells and extracts the contact can be indirect. Some entries that bind do so weakly or less than the wild type. For some of these results: Where a sequence is shown, tags or fusion partners need not be part of it.

Sequences of proteins named here, by UniProt entry; tags and fusion partners are left off. Residues count along the entry.
UniProt O75051, residues 35-1894: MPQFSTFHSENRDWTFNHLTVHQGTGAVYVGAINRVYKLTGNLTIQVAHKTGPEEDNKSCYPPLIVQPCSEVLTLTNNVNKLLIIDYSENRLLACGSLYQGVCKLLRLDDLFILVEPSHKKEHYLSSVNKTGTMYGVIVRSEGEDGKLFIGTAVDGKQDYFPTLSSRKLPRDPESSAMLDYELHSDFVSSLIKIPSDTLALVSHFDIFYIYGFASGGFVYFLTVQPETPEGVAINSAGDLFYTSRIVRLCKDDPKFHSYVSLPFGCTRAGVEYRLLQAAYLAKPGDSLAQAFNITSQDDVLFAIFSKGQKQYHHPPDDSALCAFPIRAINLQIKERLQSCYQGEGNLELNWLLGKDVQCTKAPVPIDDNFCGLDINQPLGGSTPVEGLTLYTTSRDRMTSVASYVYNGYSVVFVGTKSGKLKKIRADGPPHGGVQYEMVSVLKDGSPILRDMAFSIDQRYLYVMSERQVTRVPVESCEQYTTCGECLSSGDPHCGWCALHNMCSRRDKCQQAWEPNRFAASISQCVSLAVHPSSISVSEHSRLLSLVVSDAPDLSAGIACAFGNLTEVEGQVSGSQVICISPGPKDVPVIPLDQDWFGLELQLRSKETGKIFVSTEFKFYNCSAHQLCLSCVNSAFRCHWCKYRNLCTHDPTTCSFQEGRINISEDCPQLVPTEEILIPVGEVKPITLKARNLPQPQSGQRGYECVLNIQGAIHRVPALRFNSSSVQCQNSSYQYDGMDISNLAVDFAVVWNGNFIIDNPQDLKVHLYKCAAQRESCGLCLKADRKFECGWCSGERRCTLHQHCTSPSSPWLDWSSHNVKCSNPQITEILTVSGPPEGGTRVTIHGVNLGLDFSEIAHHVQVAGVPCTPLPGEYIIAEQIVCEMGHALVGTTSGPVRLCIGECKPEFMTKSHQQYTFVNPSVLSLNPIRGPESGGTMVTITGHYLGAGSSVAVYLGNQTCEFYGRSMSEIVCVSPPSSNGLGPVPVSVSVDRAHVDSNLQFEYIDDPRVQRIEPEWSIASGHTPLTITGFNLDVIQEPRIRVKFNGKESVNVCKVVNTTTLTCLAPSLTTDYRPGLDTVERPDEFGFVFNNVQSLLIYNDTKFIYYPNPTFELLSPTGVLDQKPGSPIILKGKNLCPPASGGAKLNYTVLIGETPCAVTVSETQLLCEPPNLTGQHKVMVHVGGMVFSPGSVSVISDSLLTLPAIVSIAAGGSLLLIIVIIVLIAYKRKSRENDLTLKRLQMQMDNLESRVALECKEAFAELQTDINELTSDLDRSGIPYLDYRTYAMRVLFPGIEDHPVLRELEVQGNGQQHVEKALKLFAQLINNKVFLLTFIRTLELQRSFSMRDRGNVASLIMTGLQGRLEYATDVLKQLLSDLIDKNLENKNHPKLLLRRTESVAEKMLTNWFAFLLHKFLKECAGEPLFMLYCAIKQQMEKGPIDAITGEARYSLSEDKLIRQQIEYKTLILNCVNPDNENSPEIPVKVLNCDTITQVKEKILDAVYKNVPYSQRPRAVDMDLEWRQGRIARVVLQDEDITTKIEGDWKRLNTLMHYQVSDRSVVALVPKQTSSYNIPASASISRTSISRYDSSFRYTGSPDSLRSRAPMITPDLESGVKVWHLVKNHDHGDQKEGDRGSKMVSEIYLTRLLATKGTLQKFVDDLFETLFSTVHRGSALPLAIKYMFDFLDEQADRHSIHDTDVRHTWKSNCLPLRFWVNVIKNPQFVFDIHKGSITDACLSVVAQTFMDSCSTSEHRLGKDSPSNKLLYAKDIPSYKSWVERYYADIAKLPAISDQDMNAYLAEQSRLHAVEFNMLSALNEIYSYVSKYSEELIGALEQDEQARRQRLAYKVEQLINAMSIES
UniProt Q9UIW2, residues 1306-1896: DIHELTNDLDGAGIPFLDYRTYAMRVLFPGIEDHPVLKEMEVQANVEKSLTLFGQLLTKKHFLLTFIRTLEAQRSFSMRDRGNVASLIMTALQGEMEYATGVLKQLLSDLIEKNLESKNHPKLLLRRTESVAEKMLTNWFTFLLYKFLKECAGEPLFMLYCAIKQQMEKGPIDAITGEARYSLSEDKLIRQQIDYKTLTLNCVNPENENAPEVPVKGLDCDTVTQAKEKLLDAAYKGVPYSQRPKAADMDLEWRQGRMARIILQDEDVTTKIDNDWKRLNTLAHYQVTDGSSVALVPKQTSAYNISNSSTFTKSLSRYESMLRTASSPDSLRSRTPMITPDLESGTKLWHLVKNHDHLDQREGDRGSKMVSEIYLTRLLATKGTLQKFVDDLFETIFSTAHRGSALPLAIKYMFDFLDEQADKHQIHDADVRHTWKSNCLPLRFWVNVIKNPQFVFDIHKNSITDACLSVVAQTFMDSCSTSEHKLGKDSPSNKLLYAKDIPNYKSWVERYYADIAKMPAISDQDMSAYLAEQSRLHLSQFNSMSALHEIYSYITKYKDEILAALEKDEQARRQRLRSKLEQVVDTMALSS
UniProt P70207, residues 35-1894: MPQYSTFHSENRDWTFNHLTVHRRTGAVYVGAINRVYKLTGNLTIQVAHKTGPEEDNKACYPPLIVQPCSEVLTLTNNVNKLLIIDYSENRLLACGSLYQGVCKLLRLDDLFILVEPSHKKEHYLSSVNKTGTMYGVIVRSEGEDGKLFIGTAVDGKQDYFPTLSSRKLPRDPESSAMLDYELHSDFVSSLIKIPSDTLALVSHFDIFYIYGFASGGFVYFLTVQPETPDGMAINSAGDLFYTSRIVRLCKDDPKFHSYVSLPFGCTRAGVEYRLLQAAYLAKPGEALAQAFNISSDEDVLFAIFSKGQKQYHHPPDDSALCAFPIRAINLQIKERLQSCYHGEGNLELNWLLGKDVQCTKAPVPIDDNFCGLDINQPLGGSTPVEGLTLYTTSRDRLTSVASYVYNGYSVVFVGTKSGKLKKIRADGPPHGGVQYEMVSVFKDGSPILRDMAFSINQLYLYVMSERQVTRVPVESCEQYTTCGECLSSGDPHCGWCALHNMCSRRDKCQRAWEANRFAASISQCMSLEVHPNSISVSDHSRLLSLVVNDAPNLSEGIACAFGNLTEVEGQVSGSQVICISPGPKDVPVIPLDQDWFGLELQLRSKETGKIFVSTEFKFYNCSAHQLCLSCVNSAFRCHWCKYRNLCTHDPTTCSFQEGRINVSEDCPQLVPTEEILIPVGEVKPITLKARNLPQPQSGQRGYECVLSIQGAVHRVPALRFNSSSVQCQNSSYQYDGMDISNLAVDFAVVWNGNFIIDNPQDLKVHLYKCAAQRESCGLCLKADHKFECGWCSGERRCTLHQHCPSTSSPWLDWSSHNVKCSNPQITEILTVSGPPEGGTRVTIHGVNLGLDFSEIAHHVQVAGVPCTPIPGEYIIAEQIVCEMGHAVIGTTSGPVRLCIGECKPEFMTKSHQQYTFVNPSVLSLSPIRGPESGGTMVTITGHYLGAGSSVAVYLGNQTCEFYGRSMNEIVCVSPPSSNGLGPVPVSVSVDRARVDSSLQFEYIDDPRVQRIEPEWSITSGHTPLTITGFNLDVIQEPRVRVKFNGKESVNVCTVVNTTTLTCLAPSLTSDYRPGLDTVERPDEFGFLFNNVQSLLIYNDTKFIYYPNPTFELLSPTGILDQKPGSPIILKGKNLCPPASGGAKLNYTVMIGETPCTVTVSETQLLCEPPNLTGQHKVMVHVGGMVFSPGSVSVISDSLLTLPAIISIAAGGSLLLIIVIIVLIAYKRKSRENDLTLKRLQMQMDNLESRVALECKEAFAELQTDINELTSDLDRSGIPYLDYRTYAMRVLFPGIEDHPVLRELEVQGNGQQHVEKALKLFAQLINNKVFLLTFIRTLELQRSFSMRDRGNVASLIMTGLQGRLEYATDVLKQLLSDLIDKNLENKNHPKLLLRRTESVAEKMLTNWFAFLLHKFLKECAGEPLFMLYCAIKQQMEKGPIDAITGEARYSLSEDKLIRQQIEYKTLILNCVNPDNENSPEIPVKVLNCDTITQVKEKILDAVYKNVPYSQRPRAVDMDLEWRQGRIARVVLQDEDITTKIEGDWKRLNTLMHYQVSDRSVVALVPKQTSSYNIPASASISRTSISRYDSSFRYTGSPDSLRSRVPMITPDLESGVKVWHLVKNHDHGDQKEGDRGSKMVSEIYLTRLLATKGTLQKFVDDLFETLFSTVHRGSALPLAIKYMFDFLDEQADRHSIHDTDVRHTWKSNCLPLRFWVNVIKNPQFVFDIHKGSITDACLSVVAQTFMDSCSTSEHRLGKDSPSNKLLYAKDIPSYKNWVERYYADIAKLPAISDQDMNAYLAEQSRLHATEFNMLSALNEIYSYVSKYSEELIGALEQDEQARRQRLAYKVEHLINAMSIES
UniProt P51805, residues 1242-1871: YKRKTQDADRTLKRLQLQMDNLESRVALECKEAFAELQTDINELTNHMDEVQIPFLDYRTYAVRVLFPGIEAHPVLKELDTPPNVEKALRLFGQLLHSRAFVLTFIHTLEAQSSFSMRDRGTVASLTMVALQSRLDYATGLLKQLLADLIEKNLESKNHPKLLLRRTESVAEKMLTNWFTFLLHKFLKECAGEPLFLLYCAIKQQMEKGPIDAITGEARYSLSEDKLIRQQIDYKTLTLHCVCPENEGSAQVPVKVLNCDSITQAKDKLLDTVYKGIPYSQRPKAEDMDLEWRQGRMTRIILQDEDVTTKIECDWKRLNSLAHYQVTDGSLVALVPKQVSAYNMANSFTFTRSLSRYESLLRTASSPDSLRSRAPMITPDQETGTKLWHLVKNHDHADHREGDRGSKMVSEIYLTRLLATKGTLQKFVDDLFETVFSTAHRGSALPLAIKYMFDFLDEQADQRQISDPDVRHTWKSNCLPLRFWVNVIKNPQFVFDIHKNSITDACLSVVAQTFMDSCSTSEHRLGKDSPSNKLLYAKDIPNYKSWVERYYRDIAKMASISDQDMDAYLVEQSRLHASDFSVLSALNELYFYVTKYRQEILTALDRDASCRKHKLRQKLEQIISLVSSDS
UniProt Q9HCM2, residues 1311-1894: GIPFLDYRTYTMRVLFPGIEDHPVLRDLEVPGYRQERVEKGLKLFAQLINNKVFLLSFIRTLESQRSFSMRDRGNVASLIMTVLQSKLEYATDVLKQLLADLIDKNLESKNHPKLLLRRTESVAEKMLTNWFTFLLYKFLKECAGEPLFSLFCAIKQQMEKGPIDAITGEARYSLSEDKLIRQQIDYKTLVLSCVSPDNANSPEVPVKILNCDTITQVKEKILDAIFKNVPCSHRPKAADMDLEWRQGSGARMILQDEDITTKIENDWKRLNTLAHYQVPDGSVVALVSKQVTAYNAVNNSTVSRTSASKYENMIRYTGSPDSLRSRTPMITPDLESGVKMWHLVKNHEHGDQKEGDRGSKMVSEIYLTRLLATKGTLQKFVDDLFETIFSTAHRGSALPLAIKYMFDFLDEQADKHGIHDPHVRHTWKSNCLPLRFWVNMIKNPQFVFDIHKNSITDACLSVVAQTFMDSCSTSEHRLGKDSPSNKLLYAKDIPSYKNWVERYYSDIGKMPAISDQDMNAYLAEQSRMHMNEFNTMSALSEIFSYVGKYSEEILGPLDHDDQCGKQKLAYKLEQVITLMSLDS

In test [1] the target is T1, KIAA1199 (endogenous, CaSki cells) (human (endogenous in CaSki)) (UniProt Q8WUJ3).
T1 sequence: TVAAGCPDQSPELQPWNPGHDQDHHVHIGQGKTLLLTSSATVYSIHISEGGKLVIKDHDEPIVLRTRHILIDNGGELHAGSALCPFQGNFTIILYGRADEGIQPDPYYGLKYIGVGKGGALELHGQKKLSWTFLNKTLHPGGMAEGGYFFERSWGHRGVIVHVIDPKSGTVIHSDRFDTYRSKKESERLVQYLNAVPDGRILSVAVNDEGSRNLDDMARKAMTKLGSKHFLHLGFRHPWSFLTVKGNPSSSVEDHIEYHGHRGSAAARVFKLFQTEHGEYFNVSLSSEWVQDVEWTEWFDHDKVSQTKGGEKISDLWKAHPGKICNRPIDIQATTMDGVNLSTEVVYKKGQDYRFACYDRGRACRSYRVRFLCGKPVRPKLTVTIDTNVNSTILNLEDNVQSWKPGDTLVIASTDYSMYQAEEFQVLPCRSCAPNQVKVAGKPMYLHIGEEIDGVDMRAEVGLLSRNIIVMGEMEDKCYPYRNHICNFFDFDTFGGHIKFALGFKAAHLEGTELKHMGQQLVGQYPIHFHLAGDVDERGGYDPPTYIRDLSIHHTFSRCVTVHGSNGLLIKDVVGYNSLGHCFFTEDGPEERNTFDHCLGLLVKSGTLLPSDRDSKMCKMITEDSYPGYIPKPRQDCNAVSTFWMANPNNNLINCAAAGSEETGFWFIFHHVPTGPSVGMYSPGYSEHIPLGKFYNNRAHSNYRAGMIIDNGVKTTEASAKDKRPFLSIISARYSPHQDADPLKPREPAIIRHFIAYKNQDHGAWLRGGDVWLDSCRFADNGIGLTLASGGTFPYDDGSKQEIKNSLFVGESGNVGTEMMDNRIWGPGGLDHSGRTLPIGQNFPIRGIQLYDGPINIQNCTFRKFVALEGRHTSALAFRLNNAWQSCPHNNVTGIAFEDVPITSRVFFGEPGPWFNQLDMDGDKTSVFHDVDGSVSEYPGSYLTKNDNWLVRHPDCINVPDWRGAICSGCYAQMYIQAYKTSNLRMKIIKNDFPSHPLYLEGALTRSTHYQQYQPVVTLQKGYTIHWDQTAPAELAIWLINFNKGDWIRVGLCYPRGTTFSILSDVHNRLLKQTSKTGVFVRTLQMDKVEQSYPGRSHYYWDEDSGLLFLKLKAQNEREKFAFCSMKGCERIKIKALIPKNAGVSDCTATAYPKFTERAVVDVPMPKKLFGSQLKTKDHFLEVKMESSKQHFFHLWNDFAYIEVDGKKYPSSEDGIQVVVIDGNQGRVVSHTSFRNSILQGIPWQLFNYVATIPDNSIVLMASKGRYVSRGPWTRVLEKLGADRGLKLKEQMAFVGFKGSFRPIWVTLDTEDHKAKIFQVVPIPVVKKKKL
In words: proximity ligation; endogenous proteins in fixed CaSki cells (4% formaldehyde); Duolink Red kit with anti-Plexin A2 monoclonal (MAB10421) and home-made anti-KIAA1199 polyclonal; KIAA1199-depleted cells as negative control.

In test [2] the target is T2, KIAA1199-FLAG (human (cDNA from CaSki cells)) (UniProt Q8WUJ3).
T2 sequence: T1 sequence
Briefly: co-IP; HEK293 cells transfected with KIAA1199-FLAG constructs and Myc-tagged Plexin constructs; lysed 24 h after transfection; anti-FLAG IP (anti-HA as negative control) 4-6 h at 4 °C, five washes with lysis buffer; anti-Myc and anti-FLAG blots.

Test [3] concerns the target T3, ΔN100 KIAA1199 mutant (FLAG) (human (cDNA from CaSki cells)) (UniProt Q8WUJ3).
T3 sequence: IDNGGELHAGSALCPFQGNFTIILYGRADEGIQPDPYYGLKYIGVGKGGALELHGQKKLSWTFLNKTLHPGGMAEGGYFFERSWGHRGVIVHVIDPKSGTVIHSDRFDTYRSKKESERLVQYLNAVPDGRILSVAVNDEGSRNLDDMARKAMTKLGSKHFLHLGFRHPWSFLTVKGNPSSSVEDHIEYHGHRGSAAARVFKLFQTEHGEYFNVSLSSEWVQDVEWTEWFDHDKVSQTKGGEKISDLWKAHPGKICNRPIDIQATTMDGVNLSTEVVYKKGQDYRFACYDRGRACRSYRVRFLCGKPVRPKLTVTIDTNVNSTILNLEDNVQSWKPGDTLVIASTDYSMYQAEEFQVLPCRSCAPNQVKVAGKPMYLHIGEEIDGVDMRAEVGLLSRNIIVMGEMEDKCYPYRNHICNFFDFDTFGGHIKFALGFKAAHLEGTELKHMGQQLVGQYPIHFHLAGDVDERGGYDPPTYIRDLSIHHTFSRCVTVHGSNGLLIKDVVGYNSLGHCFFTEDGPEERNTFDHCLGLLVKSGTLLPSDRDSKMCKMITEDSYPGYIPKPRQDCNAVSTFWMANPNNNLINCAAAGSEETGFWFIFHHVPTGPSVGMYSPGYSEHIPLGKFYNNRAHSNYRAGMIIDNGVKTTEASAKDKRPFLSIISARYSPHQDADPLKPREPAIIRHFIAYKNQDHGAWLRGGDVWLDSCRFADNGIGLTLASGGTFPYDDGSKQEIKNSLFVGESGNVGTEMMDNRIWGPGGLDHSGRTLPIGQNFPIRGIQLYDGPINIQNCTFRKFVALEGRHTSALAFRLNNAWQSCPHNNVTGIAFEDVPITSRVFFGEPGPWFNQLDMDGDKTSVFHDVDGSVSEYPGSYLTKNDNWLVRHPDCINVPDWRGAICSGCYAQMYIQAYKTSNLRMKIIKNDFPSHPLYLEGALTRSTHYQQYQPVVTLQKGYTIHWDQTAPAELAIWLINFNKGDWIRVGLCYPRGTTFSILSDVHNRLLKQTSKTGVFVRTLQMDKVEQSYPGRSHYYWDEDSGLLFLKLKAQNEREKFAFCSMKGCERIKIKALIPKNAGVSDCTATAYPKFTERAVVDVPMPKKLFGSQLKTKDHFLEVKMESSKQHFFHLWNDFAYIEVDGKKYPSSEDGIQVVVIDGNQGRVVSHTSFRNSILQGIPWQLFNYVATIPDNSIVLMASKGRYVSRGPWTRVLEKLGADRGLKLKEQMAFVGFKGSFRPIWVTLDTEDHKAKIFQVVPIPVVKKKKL
The description is as above.

The target of test [4] is EGFR (endogenous, CaSki cells) (human (endogenous in CaSki)) (UniProt P00533). In words: co-IP; endogenous proteins; CaSki lysates (25 mM Tris-HCl pH 7.4, 150 mM NaCl, 1 mM EDTA, 1% NP-40); anti-EGFR IP overnight at 4 °C (anti-FLAG as negative control), five washes; blots for KIAA1199, Src, c-Cbl; cells untreated or EGF-stimulated; control, Plexin A2-depleted (Fig. 5d) or KIAA1199-depleted (Fig. 7a) cells.

In the case of “Plexin A2 (endogenous, CaSki cells) (from UniProt O75051 35-1894) (receptor)”, the binding result in test [1] is reported as “binds”. On to “Myc-tagged cytoplasmic domain of Plexin A1 (amino acids 1,306 to 1,896) (from UniProt Q9UIW2 1306-1896) (domain or fragment)”, for which the binding entry in test [2] is listed as “no binding”.

With “Myc-tagged mouse Plexin A2 (from UniProt P70207 35-1894) (receptor)”, the binding result in test [2] is reported as “binds”; in test [3] it was “no binding”. On to “Myc-tagged cytoplasmic domain of Plexin A3 (amino acids 1,242 to 1,871) (from UniProt P51805 1242-1871) (domain or fragment)”, for which the binding result in test [2] is given as “no binding”.

With “Myc-tagged cytoplasmic domain of Plexin A4 (amino acids 1,311 to 1,894) (from UniProt Q9HCM2 1311-1894) (domain or fragment)”, the binding result in test [2] is listed as “no binding”.

B1: KIAA1199 (endogenous, CaSki cells) (protein, UniProt Q8WUJ3 31-1361)
chain: T1 sequence
Consider B1, for which the binding entry in test [4] is listed as “binds”.

These data come from paper PMC4241993.
